Laboratory results published in PMC4476799, “Englerin A Agonizes the TRPC4/C5 Cation Channels to Inhibit Tumor Cell Line Proliferation” (PLoS ONE, 2015).
Further values from the same series stand in other lists.

Test system: cancer cell lines from the cancer cell line encyclopedia (CCLE)
Assay: Cell line profiling (CLiP) proliferation experiment
Assay type: cell-based
Parameters: ACTIVITY_AREA: scale not given here; AMAX: unit not given here
Procedure: Compound profiling experiment and data analysis was performed as previously described. Data was imported and plotted using the Tibco Spotfire DXP application. Lines were categorized as sensitive, intermediate and refractory as follows: Amax<-40 & Inflection Point <2 ~ Sensitive, Amax>-20 & Inflection Point >10 ~ Refractory, all else were called Intermediate. Cancer Cell line HG-U133 Plus 2 data was processed and normalized as described. […] Five sets of refractory cell lines were generated from the pool of refractory cell lines trying to match the lineage composition of the set of sensitive cell lines. The limma package was used as previously described to perform the statistical comparison.

[1] = cell line HPB-ALL (haematopoietic_and_lymphoid_tissue, acute_lymphoblastic_T_cell_leukaemia)
[2] = cell line HPB-ALL, haematopoietic_and_lymphoid_tissue
[3] = cell line HRT-18, large_intestine
[4] = cell line HT55, large_intestine
[5] = cell line HT115, large_intestine
[6] = cell line HT, haematopoietic_and_lymphoid_tissue
[7] = cell line HT-29, large_intestine
[8] = cell line HT-1376, urinary_tract
[9] = cell line HTK-, haematopoietic_and_lymphoid_tissue
[10] = cell line Hs 611.T, haematopoietic_and_lymphoid_tissue

## CC(C)[C@@]12C[C@@H](O)[C@@](C)(O1)[C@@H]1CC[C@@H](C)[C@H]1[C@@H]2OC(=O)/C=C/c1ccccc1 [Englerin B]
Cell line HLC-1
  RESPONSE: INTERMEDIATE
Cell line HLC-1, lung
  ACTIVITY_AREA: 32.85
  AMAX: -47.99
  RESPONSE: INTERMEDIATE
Cell line HLF
  ACTIVITY_AREA: 27.05
  AMAX: -47.22
  RESPONSE: INTERMEDIATE
Cell line HLF, liver
  ACTIVITY_AREA: 27.05
  AMAX: -47.22
  RESPONSE: INTERMEDIATE
Cell line HMC-1-8
  ACTIVITY_AREA: 36.92
  AMAX: -50.5
  RESPONSE: INTERMEDIATE
Cell line HMC-1-8, breast
  ACTIVITY_AREA: 36.92
  AMAX: -50.5
  RESPONSE: INTERMEDIATE
Cell line HMCB
  ACTIVITY_AREA: 13.52
  AMAX: -46.55
  RESPONSE: INTERMEDIATE
Cell line HMCB, skin
  ACTIVITY_AREA: 13.52
  AMAX: -46.55
  RESPONSE: INTERMEDIATE
[1]
  ACTIVITY_AREA: 20
  AMAX: -58.16
  RESPONSE: INTERMEDIATE
[2]
  ACTIVITY_AREA: 20
  AMAX: -58.16
  RESPONSE: INTERMEDIATE
Cell line HRT-18
  ACTIVITY_AREA: 47.39
  AMAX: -65.56
  RESPONSE: INTERMEDIATE
[3]
  ACTIVITY_AREA: 47.39
  AMAX: -65.56
  RESPONSE: INTERMEDIATE
Cell line HT
  ACTIVITY_AREA: 17
  AMAX: -2.95
  RESPONSE: REFRACTORY
Cell line HT55
  ACTIVITY_AREA: 21.08
  AMAX: -3.91
  RESPONSE: REFRACTORY
[4]
  ACTIVITY_AREA: 21.08
  AMAX: -3.91
  RESPONSE: REFRACTORY
Cell line HT115
  ACTIVITY_AREA: 76.16
  AMAX: -55.16
  RESPONSE: INTERMEDIATE
[5]
  ACTIVITY_AREA: 76.16
  AMAX: -55.16
  RESPONSE: INTERMEDIATE
[6]
  ACTIVITY_AREA: 17
  AMAX: -2.95
  RESPONSE: REFRACTORY
Cell line HT-29
  ACTIVITY_AREA: 70.42
  AMAX: -59.2
  RESPONSE: INTERMEDIATE
[7]
  ACTIVITY_AREA: 70.42
  AMAX: -59.2
  RESPONSE: INTERMEDIATE
Cell line HT-144
  ACTIVITY_AREA: 46.48
  AMAX: -32.14
  RESPONSE: INTERMEDIATE
Cell line HT-144, skin
  ACTIVITY_AREA: 46.48
  AMAX: -32.14
  RESPONSE: INTERMEDIATE
Cell line HT-1080
  ACTIVITY_AREA: 7.34
  AMAX: -0.25
  RESPONSE: REFRACTORY
Cell line HT-1080, soft_tissue
  ACTIVITY_AREA: 7.34
  AMAX: -0.25
  RESPONSE: REFRACTORY
Cell line HT-1376
  ACTIVITY_AREA: 133.89
  AMAX: -42.01
  RESPONSE: INTERMEDIATE
[8]
  ACTIVITY_AREA: 133.89
  AMAX: -42.01
  RESPONSE: INTERMEDIATE
Cell line HTK-
  ACTIVITY_AREA: 27.8
  AMAX: -51.74
  RESPONSE: INTERMEDIATE
[9]
  ACTIVITY_AREA: 27.8
  AMAX: -51.74
  RESPONSE: INTERMEDIATE
Cell line HUP-T3
  ACTIVITY_AREA: 9.72
  AMAX: -29.27
  RESPONSE: INTERMEDIATE
Cell line HUP-T3, pancreas
  ACTIVITY_AREA: 9.72
  AMAX: -29.27
  RESPONSE: INTERMEDIATE
Cell line Hey-A8
  ACTIVITY_AREA: 77.57
  AMAX: -44.95
  RESPONSE: INTERMEDIATE
Cell line Hey-A8, ovary
  ACTIVITY_AREA: 77.57
  AMAX: -44.95
  RESPONSE: INTERMEDIATE
Cell line Hs 294T
  ACTIVITY_AREA: 50.66
  AMAX: -37.15
  RESPONSE: INTERMEDIATE
Cell line Hs 294T, skin
  ACTIVITY_AREA: 50.66
  AMAX: -37.15
  RESPONSE: INTERMEDIATE
Cell line Hs 571.T
  ACTIVITY_AREA: 42.86
  AMAX: -75.68
  RESPONSE: INTERMEDIATE
Cell line Hs 571.T, ovary
  ACTIVITY_AREA: 42.86
  AMAX: -75.68
  RESPONSE: INTERMEDIATE
Cell line Hs 578T
  ACTIVITY_AREA: 18.42
  AMAX: -43.69
  RESPONSE: INTERMEDIATE
Cell line Hs 578T, breast
  ACTIVITY_AREA: 18.42
  AMAX: -43.69
  RESPONSE: INTERMEDIATE
Cell line Hs 611.T
  ACTIVITY_AREA: 40.16
  AMAX: -68.78
  RESPONSE: INTERMEDIATE
[10]
  ACTIVITY_AREA: 40.16
  AMAX: -68.78
  RESPONSE: INTERMEDIATE
Cell line Hs 695T
  ACTIVITY_AREA: 4.29
  AMAX: -16.44
  RESPONSE: REFRACTORY
Cell line Hs 695T, skin
  ACTIVITY_AREA: 4.29
  AMAX: -16.44
  RESPONSE: REFRACTORY
Cell line Hs 729
  ACTIVITY_AREA: 88.04
  AMAX: -35.93
  RESPONSE: INTERMEDIATE
Cell line Hs 729, soft_tissue
  ACTIVITY_AREA: 88.04
  AMAX: -35.93
  RESPONSE: INTERMEDIATE
Cell line Hs 766T
  ACTIVITY_AREA: 126.47
  AMAX: -40.46
  RESPONSE: INTERMEDIATE
Cell line Hs 766T, pancreas
  ACTIVITY_AREA: 126.47
  AMAX: -40.46
  RESPONSE: INTERMEDIATE
Cell line Hs 936.T
  ACTIVITY_AREA: 11.99
  AMAX: -23.37
  RESPONSE: INTERMEDIATE
Cell line Hs 936.T, skin
  ACTIVITY_AREA: 11.99
  AMAX: -23.37
  RESPONSE: INTERMEDIATE
Cell line Hs 939.T
  ACTIVITY_AREA: 21.39
  AMAX: 4.1
  RESPONSE: REFRACTORY
Cell line Hs 939.T, skin
  ACTIVITY_AREA: 21.39
  AMAX: 4.1
  RESPONSE: REFRACTORY
Cell line Hs 940.T, skin
  ACTIVITY_AREA: 53.93
  AMAX: -48.14
  RESPONSE: INTERMEDIATE
Cell line Hs 944.T
  ACTIVITY_AREA: 34.71
  AMAX: -61.74
  RESPONSE: INTERMEDIATE
Cell line Hs 944.T, skin
  ACTIVITY_AREA: 34.71
  AMAX: -61.74
  RESPONSE: INTERMEDIATE
Cell line HuG1-N
  ACTIVITY_AREA: 135.88
  AMAX: -58.8
  RESPONSE: INTERMEDIATE
Cell line HuG1-N, stomach
  ACTIVITY_AREA: 135.88
  AMAX: -58.8
  RESPONSE: INTERMEDIATE
Cell line IGR-1, skin
  ACTIVITY_AREA: 22.7
  AMAX: 1.27
  RESPONSE: REFRACTORY
Cell line IGR-37
  ACTIVITY_AREA: 61.7
  AMAX: -54.26
  RESPONSE: INTERMEDIATE
Cell line IGR-37, skin
  ACTIVITY_AREA: 61.7
  AMAX: -54.26
  RESPONSE: INTERMEDIATE
Cell line IGR-39
  ACTIVITY_AREA: 70.27
